No constants are given. Whether binding was seen depends on the method and setting. In cells and extracts the contact can be indirect. These calls come from enrichment with a bait or labelling near it, and not all partners need be listed.
Molecular target: Flag p21 WT, P38936
Assay: affinity purification with mass spectrometry; Flag-tagged p21 or p27 overexpressed in HeLa wt and AMBRA1-KO; lysis in 1% NP40, 50 mM HEPES pH 7.5, 150 mM NaCl; anti-DYKDDDDK magnetic agarose, eluted with 3x DYKDDDDK peptide; LC-MS/MS (DIA)
Conditions: remark: other sources report otherwise

binding: binds
B1: CDK4, endogenous, P11802 1-303 (protein)
chain: MATSRYEPVAEIGVGAYGTVYKARDPHSGHFVALKSVRVPNGGGGGGGLPISTVREVALLRRLEAFEHPNVVRLMDVCATSRTDREIKVTLVFEHVDQDLRTYLDKAPPPGLPAETIKDLMRQFLRGLDFLHANCIVHRDLKPENILVTSGGTVKLADFGLARIYSYQMALTPVVVTLWYRAPEVLLQSTYATPVDMWSVGCIFAEMFRRKPLFCGNSEADQLGKIFDLIGLPPEDDWPRDVSLPRGAFPPRGPRPVQSVVPEMEESGAQLLLEMLTFNPHKRISAFRALQHSYLHKDEGNPE

From publication PMC13291606
